Data published in article PMC4847170, “Insights into the DNA-binding mechanism of a LytTR-type transcription regulator”.
Results are given in words; binding and its absence hold for the method and conditions named. Sequences can lack the tags named with a protein.

Experiments:
[1] = molecular target: 6His-YpdB (Escherichia coli) (UniProt P0AE39); assay: SEC; calibrated Superdex 200 Increase GL HR10/300 column; 50 mM Tris/HCl pH 7.6, 10% (v/v) glycerol, 150 mM NaCl, 2 mM DTT; oligomeric state of the purified protein; both purified
[2] = molecular target: 6His-YpdB-D53E (Escherichia coli) (UniProt P0AE39); assay: as above

binding [1]	binding [2]	Binder
no binding	–	6His-YpdB (protein, UniProt P0AE39 1-244) MKVIIVEDEFLAQQELSWLIKEHSQMEIVGTFDDGLDVLKFLQHNRVDAIFLDINIPSLDGVLLAQNISQFAHKPFIVFITAWKEHAVEAFELEAFDYILKPYQESRITGMLQKLEAAWQQQQTSSTPAATVTRENDTINLVKDERIIVTPINDIYYAEAHEKMTFVYTRRESYVMPMNITEFCSKLPPSHFFRCHRSFCVNLNKIREIEPWFNNTYILRLKDLDFEVPVSRSKVKEFRQLMHL
–	no binding	6His-YpdB-D53E (protein, UniProt P0AE39 1-244) MKVIIVEDEFLAQQELSWLIKEHSQMEIVGTFDDGLDVLKFLQHNRVDAIFLEINIPSLDGVLLAQNISQFAHKPFIVFITAWKEHAVEAFELEAFDYILKPYQESRITGMLQKLEAAWQQQQTSSTPAATVTRENDTINLVKDERIIVTPINDIYYAEAHEKMTFVYTRRESYVMPMNITEFCSKLPPSHFFRCHRSFCVNLNKIREIEPWFNNTYILRLKDLDFEVPVSRSKVKEFRQLMHL
